In PMC12955949 one finds binding data, which are given here for 1 substance.

Protein sequences, listed by entry. Tags and fused reporters are not part of them. Residues count along the entry.
UniProt P01137, residues 279-390: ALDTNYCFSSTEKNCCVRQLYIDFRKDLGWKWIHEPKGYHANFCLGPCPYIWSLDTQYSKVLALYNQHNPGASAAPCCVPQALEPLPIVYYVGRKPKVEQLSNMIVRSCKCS

Results are given in words; binding and its absence hold for the method and conditions named. For some assays here: In cells and extracts the contact can be indirect. Some entries that bind do so weakly or less than the wild type.

Assay [1] has as its target T1, recombinant VDR (vitamin D receptor) (UniProt P11473).
T1 sequence: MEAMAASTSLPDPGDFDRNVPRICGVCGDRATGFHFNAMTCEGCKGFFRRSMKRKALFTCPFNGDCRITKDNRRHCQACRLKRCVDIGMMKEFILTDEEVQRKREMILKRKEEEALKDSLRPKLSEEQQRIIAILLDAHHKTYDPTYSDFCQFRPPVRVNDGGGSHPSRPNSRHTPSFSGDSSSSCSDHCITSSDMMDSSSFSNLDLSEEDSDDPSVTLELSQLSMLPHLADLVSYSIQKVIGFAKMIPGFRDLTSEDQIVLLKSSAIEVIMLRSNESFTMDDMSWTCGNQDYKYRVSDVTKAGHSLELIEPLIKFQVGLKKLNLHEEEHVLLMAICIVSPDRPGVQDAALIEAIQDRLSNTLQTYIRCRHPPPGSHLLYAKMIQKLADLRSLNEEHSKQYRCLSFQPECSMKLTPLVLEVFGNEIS
The experiment in a line: co-IP; recombinant VDR (5 µg) incubated with recombinant TGFβ1; anti-VDR (ab3508) or isotype antibody overnight at 4 °C; captured on Dynabeads Protein G; Western blot with anti-VDR and anti-TGFβ1; both purified. Background: A western blot detects proteins with antibodies after separation by electrophoresis.

The target of assay [2] is T2, Vitamin D receptor (VDR), endogenous in endometrial organoid lysate (human (endogenous in endometrial organoids)) (UniProt P11473).
T2 sequence: T1 sequence
The experiment in a line: co-IP; EO protein lysate (500 µg) incubated with recombinant TGFβ1; anti-VDR (ab3508) or isotype antibody overnight at 4 °C; captured on Dynabeads Protein G; Western blot with anti-VDR and anti-TGFβ1; only the binder purified.

As to “recombinant human TGFβ1 protein (transforming growth factor beta-1) (from UniProt P01137 279-390) (ligand)”, the binding entry in assay [1] and in assay [2] was “binds” throughout.
